Laboratory results reported in paper PMC9603860.
These are yes or no findings as the source states them, for the method shown. Binding seen in cells or lysates may run through a third protein. These calls come from enrichment with a bait or labelling near it, and not all partners need be listed. Tags and fused reporters may be left off the sequences shown.

Amino acid sequences for entries named in this document (tags omitted).
UniProt O88487: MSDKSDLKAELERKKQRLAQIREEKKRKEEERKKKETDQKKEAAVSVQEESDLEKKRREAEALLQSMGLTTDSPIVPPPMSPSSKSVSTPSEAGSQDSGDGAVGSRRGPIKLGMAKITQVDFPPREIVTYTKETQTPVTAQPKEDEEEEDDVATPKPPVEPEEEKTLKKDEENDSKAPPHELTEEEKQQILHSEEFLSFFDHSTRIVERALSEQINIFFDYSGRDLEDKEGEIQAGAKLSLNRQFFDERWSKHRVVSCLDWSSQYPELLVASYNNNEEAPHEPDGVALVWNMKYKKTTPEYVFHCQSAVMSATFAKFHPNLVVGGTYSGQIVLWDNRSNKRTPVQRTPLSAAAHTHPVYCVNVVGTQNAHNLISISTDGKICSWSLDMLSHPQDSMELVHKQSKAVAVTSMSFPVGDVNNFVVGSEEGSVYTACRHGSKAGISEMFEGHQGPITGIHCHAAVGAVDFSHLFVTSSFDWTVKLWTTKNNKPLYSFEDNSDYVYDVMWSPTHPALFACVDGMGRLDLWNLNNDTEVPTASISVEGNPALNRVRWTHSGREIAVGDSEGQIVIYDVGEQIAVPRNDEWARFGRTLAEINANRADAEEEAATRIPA
UniProt Q7TSJ2: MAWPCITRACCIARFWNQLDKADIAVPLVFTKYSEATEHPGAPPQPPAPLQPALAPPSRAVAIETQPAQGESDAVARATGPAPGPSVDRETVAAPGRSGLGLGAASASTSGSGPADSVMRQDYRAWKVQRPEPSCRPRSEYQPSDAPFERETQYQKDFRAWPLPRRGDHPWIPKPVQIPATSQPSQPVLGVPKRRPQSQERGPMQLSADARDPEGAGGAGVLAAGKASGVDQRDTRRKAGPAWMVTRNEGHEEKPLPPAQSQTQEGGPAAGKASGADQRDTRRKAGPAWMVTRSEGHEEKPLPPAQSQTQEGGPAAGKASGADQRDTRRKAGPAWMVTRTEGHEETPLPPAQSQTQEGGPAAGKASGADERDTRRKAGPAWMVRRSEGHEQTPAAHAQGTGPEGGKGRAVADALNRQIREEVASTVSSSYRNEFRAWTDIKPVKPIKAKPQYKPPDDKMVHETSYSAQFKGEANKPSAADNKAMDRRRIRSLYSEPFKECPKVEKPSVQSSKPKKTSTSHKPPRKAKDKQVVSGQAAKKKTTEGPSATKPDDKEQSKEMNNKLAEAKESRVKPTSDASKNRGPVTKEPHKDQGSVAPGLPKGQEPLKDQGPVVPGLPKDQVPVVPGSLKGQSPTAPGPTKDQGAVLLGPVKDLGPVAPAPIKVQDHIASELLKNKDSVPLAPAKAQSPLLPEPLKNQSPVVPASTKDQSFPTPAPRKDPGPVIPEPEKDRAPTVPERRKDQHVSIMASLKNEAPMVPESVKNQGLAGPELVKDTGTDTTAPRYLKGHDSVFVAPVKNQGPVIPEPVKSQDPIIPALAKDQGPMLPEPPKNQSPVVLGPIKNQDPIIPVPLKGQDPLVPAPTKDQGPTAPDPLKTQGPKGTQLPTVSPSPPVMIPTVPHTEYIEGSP
UniProt Q8R1Q8: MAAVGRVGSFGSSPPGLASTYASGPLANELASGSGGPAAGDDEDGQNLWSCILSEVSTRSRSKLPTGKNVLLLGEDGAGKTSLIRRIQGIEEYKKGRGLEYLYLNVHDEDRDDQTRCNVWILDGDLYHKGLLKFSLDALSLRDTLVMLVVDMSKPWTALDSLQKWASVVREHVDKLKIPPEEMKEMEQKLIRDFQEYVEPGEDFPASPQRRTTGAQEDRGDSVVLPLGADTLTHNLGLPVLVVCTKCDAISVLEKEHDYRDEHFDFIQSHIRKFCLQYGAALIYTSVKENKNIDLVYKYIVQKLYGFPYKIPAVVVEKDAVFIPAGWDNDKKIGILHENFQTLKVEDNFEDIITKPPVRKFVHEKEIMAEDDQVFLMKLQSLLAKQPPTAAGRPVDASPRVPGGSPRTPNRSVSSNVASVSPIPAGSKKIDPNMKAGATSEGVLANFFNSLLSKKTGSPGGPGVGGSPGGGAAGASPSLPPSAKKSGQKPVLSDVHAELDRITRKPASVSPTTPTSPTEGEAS
UniProt O54983: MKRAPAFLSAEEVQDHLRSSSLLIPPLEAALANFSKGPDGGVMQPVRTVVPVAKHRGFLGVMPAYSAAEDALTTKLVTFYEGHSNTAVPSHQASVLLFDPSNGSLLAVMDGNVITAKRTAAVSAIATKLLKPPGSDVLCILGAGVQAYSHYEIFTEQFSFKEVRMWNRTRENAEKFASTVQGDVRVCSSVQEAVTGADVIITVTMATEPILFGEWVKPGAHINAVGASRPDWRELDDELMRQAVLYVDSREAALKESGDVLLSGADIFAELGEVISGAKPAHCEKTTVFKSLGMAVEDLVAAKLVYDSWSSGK
UniProt Q9WUL7: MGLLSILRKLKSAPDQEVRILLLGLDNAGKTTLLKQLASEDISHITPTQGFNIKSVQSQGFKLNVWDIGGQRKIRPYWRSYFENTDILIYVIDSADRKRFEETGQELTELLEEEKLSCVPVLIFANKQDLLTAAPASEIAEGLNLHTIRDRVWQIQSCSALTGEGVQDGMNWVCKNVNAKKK
UniProt P50096: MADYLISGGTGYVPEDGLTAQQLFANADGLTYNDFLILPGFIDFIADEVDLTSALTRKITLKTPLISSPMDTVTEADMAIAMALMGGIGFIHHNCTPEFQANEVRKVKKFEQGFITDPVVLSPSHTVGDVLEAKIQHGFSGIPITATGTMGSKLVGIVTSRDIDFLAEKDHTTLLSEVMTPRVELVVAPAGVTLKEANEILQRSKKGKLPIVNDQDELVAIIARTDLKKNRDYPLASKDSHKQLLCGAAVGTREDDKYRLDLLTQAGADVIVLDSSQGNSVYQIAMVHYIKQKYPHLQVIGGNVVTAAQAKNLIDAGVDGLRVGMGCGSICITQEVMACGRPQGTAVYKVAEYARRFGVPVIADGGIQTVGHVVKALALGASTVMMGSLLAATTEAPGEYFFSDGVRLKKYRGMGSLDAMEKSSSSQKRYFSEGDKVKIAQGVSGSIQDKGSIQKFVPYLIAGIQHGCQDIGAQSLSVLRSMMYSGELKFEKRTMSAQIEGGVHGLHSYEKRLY
UniProt P27546: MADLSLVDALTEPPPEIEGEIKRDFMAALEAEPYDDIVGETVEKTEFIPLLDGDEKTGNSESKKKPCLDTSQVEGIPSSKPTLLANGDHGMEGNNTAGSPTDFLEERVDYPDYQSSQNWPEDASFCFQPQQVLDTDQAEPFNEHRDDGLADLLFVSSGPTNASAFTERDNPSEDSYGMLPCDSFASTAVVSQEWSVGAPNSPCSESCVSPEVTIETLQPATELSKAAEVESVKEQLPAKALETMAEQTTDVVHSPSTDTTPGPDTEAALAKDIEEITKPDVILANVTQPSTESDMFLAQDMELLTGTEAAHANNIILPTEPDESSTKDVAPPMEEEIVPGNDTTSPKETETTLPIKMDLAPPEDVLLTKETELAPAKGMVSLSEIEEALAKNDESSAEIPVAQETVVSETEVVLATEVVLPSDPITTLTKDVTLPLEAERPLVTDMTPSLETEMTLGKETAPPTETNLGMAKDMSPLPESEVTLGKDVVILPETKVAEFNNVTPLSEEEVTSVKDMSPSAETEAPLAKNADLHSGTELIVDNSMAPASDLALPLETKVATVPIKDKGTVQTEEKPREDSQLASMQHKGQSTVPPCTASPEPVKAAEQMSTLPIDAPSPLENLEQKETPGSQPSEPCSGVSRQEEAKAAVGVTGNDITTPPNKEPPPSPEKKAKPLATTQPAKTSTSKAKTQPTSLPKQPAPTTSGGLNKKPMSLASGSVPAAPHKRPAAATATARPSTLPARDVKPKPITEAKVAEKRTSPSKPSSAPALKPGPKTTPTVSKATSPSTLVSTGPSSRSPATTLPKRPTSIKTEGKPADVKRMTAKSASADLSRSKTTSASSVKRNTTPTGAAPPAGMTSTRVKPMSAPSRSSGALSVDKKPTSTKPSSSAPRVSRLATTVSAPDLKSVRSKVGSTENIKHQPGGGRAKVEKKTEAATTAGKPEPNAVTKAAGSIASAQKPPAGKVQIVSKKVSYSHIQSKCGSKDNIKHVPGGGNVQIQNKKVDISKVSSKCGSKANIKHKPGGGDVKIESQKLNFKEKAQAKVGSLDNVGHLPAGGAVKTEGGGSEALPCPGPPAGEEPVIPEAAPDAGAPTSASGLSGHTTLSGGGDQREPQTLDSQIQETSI
UniProt O35600: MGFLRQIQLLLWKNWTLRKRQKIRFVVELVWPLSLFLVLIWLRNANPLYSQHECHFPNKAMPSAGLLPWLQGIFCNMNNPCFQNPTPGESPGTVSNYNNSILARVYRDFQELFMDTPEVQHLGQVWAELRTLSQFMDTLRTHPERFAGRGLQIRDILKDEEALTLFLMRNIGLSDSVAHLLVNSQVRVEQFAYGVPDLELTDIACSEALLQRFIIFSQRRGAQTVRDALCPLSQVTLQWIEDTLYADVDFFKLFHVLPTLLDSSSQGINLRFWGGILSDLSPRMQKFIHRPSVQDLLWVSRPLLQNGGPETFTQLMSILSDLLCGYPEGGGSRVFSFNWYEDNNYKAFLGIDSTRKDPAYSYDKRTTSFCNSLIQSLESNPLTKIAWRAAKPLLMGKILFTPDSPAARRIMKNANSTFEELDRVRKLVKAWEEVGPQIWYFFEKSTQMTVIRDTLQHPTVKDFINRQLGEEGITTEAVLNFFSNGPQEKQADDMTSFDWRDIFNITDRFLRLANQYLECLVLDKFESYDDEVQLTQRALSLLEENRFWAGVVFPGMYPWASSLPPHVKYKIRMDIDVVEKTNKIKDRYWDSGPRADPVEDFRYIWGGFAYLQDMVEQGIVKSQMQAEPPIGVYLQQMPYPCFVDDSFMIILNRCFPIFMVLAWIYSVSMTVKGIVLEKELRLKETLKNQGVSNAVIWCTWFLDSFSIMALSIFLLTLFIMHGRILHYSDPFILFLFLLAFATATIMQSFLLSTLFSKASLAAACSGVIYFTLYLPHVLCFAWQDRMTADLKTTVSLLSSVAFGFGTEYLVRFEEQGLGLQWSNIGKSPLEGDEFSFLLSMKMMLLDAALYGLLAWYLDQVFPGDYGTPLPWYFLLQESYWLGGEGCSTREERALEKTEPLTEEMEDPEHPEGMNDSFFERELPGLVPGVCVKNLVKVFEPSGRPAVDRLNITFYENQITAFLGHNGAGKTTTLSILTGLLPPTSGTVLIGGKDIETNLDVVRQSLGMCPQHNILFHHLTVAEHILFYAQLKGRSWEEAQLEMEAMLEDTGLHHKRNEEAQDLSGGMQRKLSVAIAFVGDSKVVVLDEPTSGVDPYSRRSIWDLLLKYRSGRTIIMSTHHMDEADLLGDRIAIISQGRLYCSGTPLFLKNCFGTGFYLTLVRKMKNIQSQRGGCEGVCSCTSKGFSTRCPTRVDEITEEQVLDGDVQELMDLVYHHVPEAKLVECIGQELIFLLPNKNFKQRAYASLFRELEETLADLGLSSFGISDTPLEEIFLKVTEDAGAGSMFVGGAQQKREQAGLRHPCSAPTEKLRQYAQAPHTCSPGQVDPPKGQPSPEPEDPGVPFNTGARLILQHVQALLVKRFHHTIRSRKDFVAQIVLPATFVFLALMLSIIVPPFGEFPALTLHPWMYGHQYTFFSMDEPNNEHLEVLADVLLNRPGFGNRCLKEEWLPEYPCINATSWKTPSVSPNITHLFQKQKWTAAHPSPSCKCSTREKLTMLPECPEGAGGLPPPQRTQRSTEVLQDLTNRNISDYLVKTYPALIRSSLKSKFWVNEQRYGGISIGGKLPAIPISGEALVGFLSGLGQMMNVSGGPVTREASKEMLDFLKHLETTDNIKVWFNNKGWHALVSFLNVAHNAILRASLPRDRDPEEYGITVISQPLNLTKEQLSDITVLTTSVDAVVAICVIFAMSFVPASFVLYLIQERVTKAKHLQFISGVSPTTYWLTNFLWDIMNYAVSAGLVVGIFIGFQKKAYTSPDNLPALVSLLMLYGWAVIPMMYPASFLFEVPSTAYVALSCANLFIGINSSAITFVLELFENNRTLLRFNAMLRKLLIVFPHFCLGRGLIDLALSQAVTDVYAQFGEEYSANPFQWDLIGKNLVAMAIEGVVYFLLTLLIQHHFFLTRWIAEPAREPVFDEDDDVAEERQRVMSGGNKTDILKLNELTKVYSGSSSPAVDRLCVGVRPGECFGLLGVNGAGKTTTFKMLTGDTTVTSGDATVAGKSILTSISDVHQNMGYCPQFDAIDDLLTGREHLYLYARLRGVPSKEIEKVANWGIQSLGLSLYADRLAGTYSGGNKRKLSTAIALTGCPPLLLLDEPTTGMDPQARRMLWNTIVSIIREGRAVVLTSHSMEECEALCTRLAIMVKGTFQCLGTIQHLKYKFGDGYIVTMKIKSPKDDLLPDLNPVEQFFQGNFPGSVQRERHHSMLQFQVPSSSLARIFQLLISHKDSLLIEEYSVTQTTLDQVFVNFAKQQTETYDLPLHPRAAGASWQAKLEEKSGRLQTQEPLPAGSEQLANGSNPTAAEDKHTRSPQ

Biological target: T1, USP48 (endogenous retinal USP48) (mouse (endogenous in retina)) (UniProt Q3V0C5)
T1 sequence: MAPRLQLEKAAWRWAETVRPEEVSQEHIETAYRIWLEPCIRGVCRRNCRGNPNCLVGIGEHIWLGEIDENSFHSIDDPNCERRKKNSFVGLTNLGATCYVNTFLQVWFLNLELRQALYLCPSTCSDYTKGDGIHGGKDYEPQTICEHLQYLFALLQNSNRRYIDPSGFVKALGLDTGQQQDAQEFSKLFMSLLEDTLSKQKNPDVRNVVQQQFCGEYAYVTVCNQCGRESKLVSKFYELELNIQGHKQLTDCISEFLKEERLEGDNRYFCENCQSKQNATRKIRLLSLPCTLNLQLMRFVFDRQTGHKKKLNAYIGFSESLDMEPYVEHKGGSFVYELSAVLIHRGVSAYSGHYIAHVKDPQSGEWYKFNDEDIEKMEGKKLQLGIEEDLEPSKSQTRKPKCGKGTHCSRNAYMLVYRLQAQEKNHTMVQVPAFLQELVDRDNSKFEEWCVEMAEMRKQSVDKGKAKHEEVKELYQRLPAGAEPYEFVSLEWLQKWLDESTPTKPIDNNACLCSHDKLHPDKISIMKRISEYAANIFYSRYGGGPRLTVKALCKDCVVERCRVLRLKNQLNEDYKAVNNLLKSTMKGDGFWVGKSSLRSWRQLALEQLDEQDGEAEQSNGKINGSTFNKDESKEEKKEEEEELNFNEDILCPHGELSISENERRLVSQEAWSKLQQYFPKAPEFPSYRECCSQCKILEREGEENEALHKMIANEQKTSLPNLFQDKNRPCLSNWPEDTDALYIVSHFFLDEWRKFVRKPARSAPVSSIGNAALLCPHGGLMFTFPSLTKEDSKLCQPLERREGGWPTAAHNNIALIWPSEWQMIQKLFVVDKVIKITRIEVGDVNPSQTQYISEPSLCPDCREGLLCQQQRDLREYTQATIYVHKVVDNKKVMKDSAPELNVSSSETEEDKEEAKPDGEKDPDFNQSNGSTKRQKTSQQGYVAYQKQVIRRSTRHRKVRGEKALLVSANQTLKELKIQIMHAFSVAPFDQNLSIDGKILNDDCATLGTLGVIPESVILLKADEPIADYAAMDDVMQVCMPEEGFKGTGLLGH
Assay: affinity purification with mass spectrometry; non-denaturing immunoprecipitation of endogenous USP48 from lysates of twelve mouse retinas with anti-USP48 (ab72226), Protein G Sepharose, lysis buffer 50 mM TrisHCl pH 7.5, 1 mM EDTA, 150 mM NaCl, 0.5% Nonidet P-40; eluate by LC-MS/MS; proteins also present in the anti-GFP control sample …

Row | binding | Molecule
1 | binds | rootletin (from UniProt Q8CJ40 1-2009)
2 | binds | cytoplasmic dynein 1 intermediate chain 2 (from UniProt O88487 1-612)
3 | binds | G protein subunit α-transducin 2 (from UniProt P50149 1-354)
4 | binds | microtubule-associated protein 6 (from UniProt Q7TSJ2 1-906)
5 | binds | microtubule-associated protein 2 (from UniProt P20357 1-1828)
6 | binds | tubulin α-4A (from UniProt P68368 1-448)
7 | binds | cytoplasmic dynein 1 light intermediate chain 1 (from UniProt Q8R1Q8 1-523)
8 | binds | Crystallin Mu (from UniProt O54983 1-313)
9 | binds | ADP-ribosylation factor-like GTPase 3 (from UniProt Q9WUL7 1-182)
10 | binds | Dynactin 2 (from UniProt Q99KJ8 1-402)
11 | binds | Cytoplasmic dynein 1 heavy chain 1 (from UniProt Q9JHU4 1-4644)
12 | binds | dynactin 1 (from UniProt O08788 1-1281)
13 | binds | Inosine Monophosphate dehydrogenase 1 (from UniProt P50096 1-514) (enzyme)
14 | binds | Microtubule-associated protein 1B (from UniProt P14873 1-2464)
15 | binds | microtubule-associated protein 4 (from UniProt P27546 1-1125)
16 | binds | N-myc downstream regulated 1 (from UniProt Q62433 1-394)
17 | binds | Retinal-specific phospholipid-transporting ATPase ABCA4 (from UniProt O35600 1-2310)
18 | binds | S-opsin (receptor, UniProt P51491 1-346) MSGEDDFYLFQNISSVGPWDGPQYHLAPVWAFRLQAAFMGFVFFVGTPLNAIVLVATLHYKKLRQPLNYILVNVSLGGFLFCIFSVFTVFIASCHGYFLFGRHVCALEAFLGSVAGLVTGWSLAFLAFERYVVICKPFGSIRFNSKHALMVVLATWIIGIGVSIPPFFGWSRFIPEGLQCSCGPDWYTVGTKYRSEYYTWFLFIFCFIIPLSLICFSYSQLLRTLRAVAAQQQESATTQKAEREVSHMVVVMVGSFCLCYVPYAALAMYMVNNRNHGLDLRLVTIPAFFSKSSCVYNPIIYCFMNKQFRACILEMVCRKPMADESDVSGSQKTEVSTVSSSKVGPH
19 | binds | Phosphodiesterase 6C (enzyme, UniProt Q91ZQ1 1-861) MGEISQEAVERYLEKNPCFAKEYFDKKLRVEALGVIFKNSHAGVQTGLSLPEMTQVEESAVCLELLQCMQDEAGSAEQMAHRALQRLAQLLQADCCSMFSCRARNGIPEVASRLLNVTPTSKFEDNLVAPDREVVFPLDIGIVGWVAHVKKALNVSDVKKNSHFSDFMDKQTGYVTRNLLAVPIVAGKEVLAVVMAVNKISAPEFSKQDEEVFSKYLSFVAVALRLQHTSYLYSVESRRSQILMWSANKVFEELTDVERQFHKALYTIRTYLNCDRYSIGLLDMTKEKEFYDEWPIKLGEVEPYKGPKTPDGREIIFYKIIDYILHGKEEINVIPSPPADHWTLVSGLPTYVAENGFICNMLNAPADEYFTFQKGPVDETGWVIKNVLSLPIVNKKEDIVGVATFYNRKDGKPFDEHDEHITETLTQFLGWSLLNTDTYERVNKLESRKDIAQEMVMNLTKATPDEISSILKFKEKLNVEVIEECEERQLLAILKEDLPDPRTADLYEFCFSDFPITEHELVKCGLRLFLEINVVEKFKVPVEVLTRWMYTVRKGYRPVTYHNWRHGFNVGQTMFTLLMTGRLKKYYTDLEAFAMLAAAFCHDIDHRGTNNLYQMKSTSPLARLHGTSILERHHLEYSKTLLQDESLNIFQNLNKRQFETVIHLFEVAIIATDLALYFKKRTMFQKIVDTCEQMQSEEETIKYVTSDPTKKEVIMAMMMTACDLSAITKPWEVQSQVALLVANEFWEQGDLERTVLQQQPIPMMDRSKKDELPKLQVGFIDFVCTFVYKEFSRFHGEITPMLNGLQNNRVEWKSLAEEYEAKVKVTEEEAGKQEEEASDGKAATDLGGSAEDKKSKTCLML
20 | binds | Peripherin 2 (protein, UniProt P15499 1-346) MALLKVKFDQKKRVKLAQGLWLMNWLSVLAGIVLFSLGLFLKIELRKRSEVMNNSESHFVPNSLIGVGVLSCVFNSLAGKICYDALDPAKYAKWKPWLKPYLAVCIFFNVILFLVALCCFLLRGSLESTLAYGLKNGMKYYRDTDTPGRCFMKKTIDMLQIEFKCCGNNGFRDWFEIQWISNRYLDFSSKEVKDRIKSNVDGRYLVDGVPFSCCNPSSPRPCIQYQLTNNSAHYSYDHQTEELNLWLRGCRAALLNYYSSLMNSMGVVTLLVWLFEVSITAGLRYLHTALESVSNPEDPECESEGWLLEKSVPETWKAFLESFKKLGKSNQVEAEGADAGPAPEAG
21 | binds | Regulator of G protein signalling 9 (protein, UniProt O54828 1-675) MTIRHQGQQYRPRMAFLQKIEALVKDMQNPETGVRMHNQRVLVTSVPHAMTGGDVLQWITQRLWISNLEAQNLGNFIVKYGYIYPLQDPKNLILKPDSSLYRFQTPYFWPTQQWPAEDTDYAIYLAKRNIKKKGILEEYEKENYDFLNKKINYKWDFVIMQAKEQYRTGKERNKADRYALDCQEKAYWLVHRSPPGMNNVLDYGLDRVTNPNEVKKQTVTAVRKEIMYYQQALMRSTVKSSVSLGGIVKYSEQFSSNDAIMSGCLPSNPWITDDTQFWDLNAKLVEIPTKMRVERWAFNFSELIRDPKGRQSFQYFLKKEFSGENLGFWEACEDLKYGDQSKVKEKAEEIYKLFLAPGARRWINIDGKTMDITVKGLRHPHRYVLDAAQTHIYMLMKKDSYARYLKSPIYKEMLAKAIEPQETTKRSSTLPFMRRHLRSSPSPVILRQLEEEEKAREAANTVDITQPGQHLAPSPHLAVYTGTCVPPSPSSPFSPSCRSPRKPFASPSRFIRRPSIAICPSPSRVALEGSSGLEPKGEASWSGANSGPSVTENREPSADHSRPQPRAPPKARAALSLGRFLRRGCLASPVFARLSPKCPSVSHGKVQPLGDMGQQLPRLKPKKVANFFQIKMEMPTDSGTCLMDSDDPRAGESGDQTTEKEVICPWESLAEGKAG
22 | binds | Chaperonin-containing T-complex protein 1 subunit 2 (protein, UniProt P80314 1-535) MASLSLAPVNIFKAGADEERAETARLSSFIGAIAIGDLVKSTLGPKGMDKILLSSGRDAALMVTNDGATILKNIGVDNPAAKVLVDMSRVQDDEVGDGTTSVTVLAAELLREAESLIAKKIHPQTIISGWREATKAAREALLSSAVDHGSDEARFWQDLMNIAGTTLSSKLLTHHKDHFTKLAVEAVLRLKGSGNLEAIHVIKKLGGSLADSYLDEGFLLDKKIGVNQPKRIENAKILIANTGMDTDKIKIFGSRVRVDSTAKVAEIEHAEKEKMKEKVERILKHGINCFINRQLIYNYPEQLFGAAGVMAIEHADFAGVERLALVTGGEIASTFDHPELVKLGSCKLIEEVMIGEDKLIHFSGVALGEACTIVLRGATQQILDEAERSLHDALCVLAQTVKDPRTVYGGGCSEMLMAHAVTQLANRTPGKEAVAMESFAKALRMLPTIIADNAGYDSADLVAQLRAAHSEGHITAGLDMKEGTIGDMAVLGITESFQVKRQVLLSAAEAAEVILRVDNIIKAAPRKRVPDHHPC
23 | binds | α-glucosidase II (enzyme, UniProt Q8BHN3 33-944) VDRSNFKTCDESSFCKRQRSIRPGLSPYRALLDTLQLGPDALTVHLIHEVTKVLLVLELQGLQKNMTRIRIDELEPRRPRYRVPDVLVADPPTARLSVSGRDDNSVELTVAEGPYKIILTAQPFRLDLLEDRSLLLSVNARGLMAFEHQRAPRVPQESKDPAEGNGAQPEATPGDGDKPEETQEKAEKDEPGAWEETFKTHSDSKPYGPTSVGLDFSLPGMEHVYGIPEHADSLRLKVTEGGEPYRLYNLDVFQYELNNPMALYGSVPVLLAHSFHRDLGIFWLNAAETWVDISSNTAGKTLFGKMLDYLQGSGETPQTDIRWMSESGIIDVFLMLGPSVFDVFRQYASLTGTQALPPLFSLGYHQSRWNYRDEADVLEVDQGFDDHNMPCDVIWLDIEHADGKRYFTWDPTRFPQPLNMLEHLASKRRKLVAIVDPHIKVDSGYRVHEELRNHGLYVKTRDGSDYEGWCWPGSASYPDFTNPRMRAWWSNMFSFDNYEGSAPNLYVWNDMNEPSVFNGPEVTMLKDAVHYGGWEHRDIHNIYGLYVHMATADGLIQRSGGIERPFVLSRAFFSGSQRFGAVWTGDNTAEWDHLKISIPMCLSLALVGLSFCGADVGGFFKNPEPELLVRWYQMGAYQPFFRAHAHLDTGRREPWLLASQYQDAIRDALFQRYSLLPFWYTLFYQAHKEGFPVMRPLWVQYPEDMSTFSIEDQFMLGDALLIHPVSDAGAHGVQVYLPGQEEVWYDIQSYQKHHGPQTLYLPVTLSSIPVFQRGGTIVPRWMRVRRSSDCMKDDPITLFVALSPQGTAQGELFLDDGHTFNYQTRHEFLLRRFSFSGSTLVSSSADPKGHLETPIWIERVVIMGAGKPAAVVLQTKGSPESRLSFQHDPETSVLILRKPGVSVASDWSIHLR
